Test results: PubChem BioAssay (NCATS)
This list was built around the results that the source calls inconclusive (neither active nor inactive); the mix of calls is not that of the screen. For some assays here: Where the call is inconclusive, the potency comes from a doubtful curve fit. The source made the active and inactive calls. Calls follow the shape of the dose curve; as a rule, active = well fitted curve in the direction sought with a large enough effect; inconclusive = small, poorly fitted or top-dose-only effect, or another doubt; inactive = no such curve, though single readings can be large; an effect the other way counts as inactive or inconclusive.

The chains behind the UniProt entries cited, without tags or fusion partners. Where a name states a change or a piece, a line headed by the entry shows the natural chain unless it says otherwise.
UniProt P11473: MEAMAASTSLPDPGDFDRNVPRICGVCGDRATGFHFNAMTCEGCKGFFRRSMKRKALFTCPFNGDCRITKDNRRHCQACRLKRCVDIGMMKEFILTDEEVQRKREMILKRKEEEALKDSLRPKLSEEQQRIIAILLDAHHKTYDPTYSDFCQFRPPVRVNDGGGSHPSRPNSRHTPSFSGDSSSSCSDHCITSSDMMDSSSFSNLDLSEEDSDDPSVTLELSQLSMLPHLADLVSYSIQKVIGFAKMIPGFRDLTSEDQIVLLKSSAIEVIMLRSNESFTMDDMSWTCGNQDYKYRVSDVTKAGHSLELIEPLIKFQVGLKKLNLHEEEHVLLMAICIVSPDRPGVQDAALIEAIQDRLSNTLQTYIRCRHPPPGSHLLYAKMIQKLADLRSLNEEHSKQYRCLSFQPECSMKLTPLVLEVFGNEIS
UniProt Q14191, whole entry, looked up: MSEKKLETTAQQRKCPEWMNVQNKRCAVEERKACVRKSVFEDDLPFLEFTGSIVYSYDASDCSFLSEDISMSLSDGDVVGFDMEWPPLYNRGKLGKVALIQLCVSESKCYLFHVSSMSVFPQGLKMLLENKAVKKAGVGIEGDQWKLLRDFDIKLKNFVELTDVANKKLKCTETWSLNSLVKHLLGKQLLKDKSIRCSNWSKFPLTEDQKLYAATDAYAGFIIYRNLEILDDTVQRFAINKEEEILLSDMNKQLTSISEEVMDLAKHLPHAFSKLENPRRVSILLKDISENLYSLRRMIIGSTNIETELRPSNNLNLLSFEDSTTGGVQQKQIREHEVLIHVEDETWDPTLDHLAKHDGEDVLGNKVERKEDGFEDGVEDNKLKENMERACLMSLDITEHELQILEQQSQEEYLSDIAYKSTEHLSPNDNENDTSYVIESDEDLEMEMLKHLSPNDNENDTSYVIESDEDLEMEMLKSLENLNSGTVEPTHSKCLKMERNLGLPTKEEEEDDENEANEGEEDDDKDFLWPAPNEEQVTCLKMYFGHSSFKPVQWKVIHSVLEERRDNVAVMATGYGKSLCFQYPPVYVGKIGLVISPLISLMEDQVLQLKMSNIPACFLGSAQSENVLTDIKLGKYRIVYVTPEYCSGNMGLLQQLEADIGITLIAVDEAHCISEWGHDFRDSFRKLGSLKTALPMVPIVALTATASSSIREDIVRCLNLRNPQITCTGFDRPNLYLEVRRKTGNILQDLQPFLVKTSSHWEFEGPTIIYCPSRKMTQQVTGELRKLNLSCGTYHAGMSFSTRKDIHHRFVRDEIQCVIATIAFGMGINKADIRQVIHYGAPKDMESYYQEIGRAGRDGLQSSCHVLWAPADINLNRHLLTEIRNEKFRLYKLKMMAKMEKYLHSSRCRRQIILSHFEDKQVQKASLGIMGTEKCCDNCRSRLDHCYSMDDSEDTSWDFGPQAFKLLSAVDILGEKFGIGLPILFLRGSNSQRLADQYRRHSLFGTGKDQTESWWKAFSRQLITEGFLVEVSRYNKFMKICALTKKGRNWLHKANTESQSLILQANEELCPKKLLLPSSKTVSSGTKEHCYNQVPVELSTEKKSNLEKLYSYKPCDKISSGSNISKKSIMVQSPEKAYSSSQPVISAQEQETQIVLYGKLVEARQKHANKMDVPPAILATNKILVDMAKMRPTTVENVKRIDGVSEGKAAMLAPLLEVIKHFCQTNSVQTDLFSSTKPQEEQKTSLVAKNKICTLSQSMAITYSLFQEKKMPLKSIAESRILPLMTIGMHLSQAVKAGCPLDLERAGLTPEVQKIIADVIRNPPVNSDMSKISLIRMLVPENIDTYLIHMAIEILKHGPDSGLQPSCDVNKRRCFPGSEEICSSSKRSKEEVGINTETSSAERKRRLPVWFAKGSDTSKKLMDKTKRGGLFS
UniProt P54132: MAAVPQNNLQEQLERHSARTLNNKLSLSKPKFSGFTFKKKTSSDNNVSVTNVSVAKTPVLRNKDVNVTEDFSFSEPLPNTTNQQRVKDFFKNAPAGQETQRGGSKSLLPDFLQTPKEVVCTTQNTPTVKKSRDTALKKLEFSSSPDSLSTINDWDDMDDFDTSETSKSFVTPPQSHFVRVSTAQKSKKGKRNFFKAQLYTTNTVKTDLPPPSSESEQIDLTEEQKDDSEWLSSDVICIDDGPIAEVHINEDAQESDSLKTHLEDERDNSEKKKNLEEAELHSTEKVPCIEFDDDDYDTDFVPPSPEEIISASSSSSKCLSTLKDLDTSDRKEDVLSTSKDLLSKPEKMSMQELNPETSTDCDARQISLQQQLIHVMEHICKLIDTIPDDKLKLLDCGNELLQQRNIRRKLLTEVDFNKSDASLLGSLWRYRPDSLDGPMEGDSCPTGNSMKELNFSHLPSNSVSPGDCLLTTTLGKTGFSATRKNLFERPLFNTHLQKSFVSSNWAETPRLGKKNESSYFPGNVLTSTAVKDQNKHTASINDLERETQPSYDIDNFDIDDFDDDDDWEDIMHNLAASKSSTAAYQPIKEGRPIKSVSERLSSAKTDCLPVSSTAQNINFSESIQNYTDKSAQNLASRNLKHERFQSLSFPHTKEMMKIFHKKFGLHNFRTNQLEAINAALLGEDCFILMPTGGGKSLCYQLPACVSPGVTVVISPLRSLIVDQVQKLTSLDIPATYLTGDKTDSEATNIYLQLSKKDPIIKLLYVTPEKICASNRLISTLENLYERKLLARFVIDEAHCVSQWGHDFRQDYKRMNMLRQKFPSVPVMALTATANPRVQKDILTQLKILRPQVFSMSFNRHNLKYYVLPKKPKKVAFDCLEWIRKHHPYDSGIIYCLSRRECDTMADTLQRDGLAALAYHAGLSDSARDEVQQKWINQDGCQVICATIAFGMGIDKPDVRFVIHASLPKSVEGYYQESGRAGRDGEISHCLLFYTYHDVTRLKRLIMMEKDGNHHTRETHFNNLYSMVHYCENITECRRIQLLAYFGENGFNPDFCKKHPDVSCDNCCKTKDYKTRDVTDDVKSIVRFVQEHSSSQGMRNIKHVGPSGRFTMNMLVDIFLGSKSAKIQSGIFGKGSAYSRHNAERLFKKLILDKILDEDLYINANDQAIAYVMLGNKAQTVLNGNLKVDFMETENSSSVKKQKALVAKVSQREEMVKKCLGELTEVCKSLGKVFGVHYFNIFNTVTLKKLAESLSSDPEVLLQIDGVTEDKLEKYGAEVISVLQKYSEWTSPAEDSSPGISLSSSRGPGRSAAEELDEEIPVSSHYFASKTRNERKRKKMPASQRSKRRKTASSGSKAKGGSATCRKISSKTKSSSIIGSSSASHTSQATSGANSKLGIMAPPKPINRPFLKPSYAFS

Experiments:
[1] = molecular target: Vitamin D3 receptor (Homo sapiens) (UniProt P11473); assay: qHTS for Inhibitors of the vitamin D receptor (VDR): Hit Validation in Primary Screen (AID 602199); settings: VDR-coactivator inhibition assay, qHTS confirmation; also: potency is read from the fitted curve at half-maximal effect
Outline: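 With 800 nM VDR and 5 uM LG19078 agonist present, compounds were incubated 2 h at ambient temperature with Alexa 647-labelled SRC2-3. Displacement was read as polarization at 620/688 nm.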

[2] = molecular target: Vitamin D3 receptor (Homo sapiens) (UniProt P11473); assay: qHTS for Inhibitors of the vitamin D receptor (VDR): Hit Validation using a Fluorescein Assay (AID 602200); settings: VDR-coactivator binding, fluorescein fluorescence polarization; series mostly up to 57.1 µM; also: potency is read from the fitted curve at half-maximal effect
Outline: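 Compounds added to VDR ligand-binding domain (1.5 uM) with agonist LG19078 (5 uM) and 5 nM SRC2-3 fluorescein peptide, final concentrations. After 2 h at ambient temperature, polarization of fluorescein emission (Ex 495 nm/Em 520 nm) measured.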

[3] = qHTS for Inhibitors of the vitamin D receptor (VDR): Hit Validation using a Texas Red Assay (AID 602201); settings: VDR coregulator binding, Texas Red fluorescence polarization, agonist-bound VDR ligand-binding domain; series mostly up to 57.1 µM; also: potency is read from the fitted curve at half-maximal effect
Outline: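 After a 2-hour room-temperature incubation, polarization of Texas-Red emission was read (Ex 595 nm/Em 615 nm). Final mix contained 7 nM Texas Red, 1.5 uM VDR-LBD and LG19078.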

[4] = molecular target: Vitamin D3 receptor (Homo sapiens) (UniProt P11473); assay: qHTS for Inhibitors of the vitamin D receptor (VDR): Hit Validation using a Beta-Lactamase Assay (AID 602202); settings: VDR beta-lactamase reporter cells, FRET ratio, cells co-treated with VDR agonist LG190178; series mostly up to 46.1 µM; also: potency is read from the fitted curve at half-maximal effect
Outline: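 Beta-lactamase reporter read-out (447 nm emission of cleaved FRET substrate, 2 h) after 18 h compound exposure of HEK293 cells carrying a VDR-GAL4 fusion and UAS reporter, stimulated with LG190178.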

[5] = qHTS for Inhibitors of the vitamin D receptor (VDR): Hit Validation using a Cytotoxicity Assay (AID 602204); settings: cytotoxicity counter-screen, cell viability; series mostly up to 48.3 µM; also: nearly all actives have a fitted effect of over 75% in size
Outline: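 Luminescence proportional to cellular ATP reports viability. Cells (20,000 per well) rested 4 h, were treated with compounds for 18 h, then incubated 30 min with detection reagent. Controls: cycloheximide (high) and DMSO.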

[6] = molecular target: Bifunctional 3'-5' exonuclease/ATP-dependent helicase WRN (Homo sapiens) (UniProt Q14191); assay: qHTS for Inhibitors of WRN Helicase: Confirmatory Assay for Cherry-picked Compounds. (AID 720497); settings: WRN helicase DNA unwinding, fluorescence kinetic; series mostly up to 57.1 µM; also: nearly all actives have a fitted effect of over 65% in size
Outline: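 Confirmatory retest of cherry-picked hits in 1536-well format. Enzyme (20 nM final) sat with compound for 15 min at room temperature before forked duplex substrate (100 nM) and ATP (2 mM) were added, and unwinding was followed kinetically by red fluorescence.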

[7] = molecular target: RecQ-like DNA helicase BLM (Homo sapiens) (UniProt P54132); assay: qHTS for Inhibitors of WRN Helicase: BLM Helicase Counterscreen for WRN Inhibitors (AID 720503); settings: Recombinant BLM helicase DNA unwinding, red fluorescence; series mostly up to 57.1 µM; also: potency is read from the fitted curve at half-maximal effect; nearly all actives have a fitted effect of over 60% in size
Outline: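 Steps: compounds added to 1 nM BLM in pH 8.0 Tris buffer with 2 mM MgCl2; 15 min room-temperature incubation; substrates added (100 nM DNA, 2 mM ATP final); discontinuous kinetic fluorescence measurement, reads spaced 15 min.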

## COc1ccc(Br)cc1C1NC(c2ccc3c(c2)OCO3)=CC(c2cc(Cl)ccc2O)N1 (centres undefined)
[1]
  Potency: inconclusive: 31.6 µM [inhibitor, single point]
[2]
  Potency: inconclusive: 35.5 µM [inhibitor, single point]
[3]
  Potency: inconclusive: 39.8 µM [inhibitor, single point]
[4]
  Potency: inconclusive: 32.6 µM [inhibitor, partial curve, poor fit]

## COc1cc(/C=C2\C(=O)N(CCC#N)N=C2C)c(Br)cc1OC(C)C
[2]
  Potency: inconclusive: 4.47 µM [inhibitor, full curve, poor fit]
[3]
  Potency: inconclusive: 3.55 µM [inhibitor, partial curve, poor fit]

## COc1cc(-c2cc(C(=O)Nc3cc(S(=O)(=O)N4CCOCC4)ccc3O)c3ccccc3n2)cc(OC)c1OC
[1]
  Potency: inconclusive: 15.8 µM [inhibitor, partial curve]
[3]
  Potency: inconclusive: 39.8 µM [inhibitor, single point]
[4]
  Potency: inactive
[5]
  Potency: inactive

## COc1ccccc1NS(=O)(=O)c1cc(NC(=O)c2cccs2)ccc1N1CCCC1
[2]
  Potency: inconclusive: 4.47 µM [inhibitor, single point]
[3]
  Potency: inconclusive: 3.55 µM [inhibitor, single point]

## N#C/C(=C1\C(=O)Nc2c(Cl)cc(Cl)cc21)c1nnc2n1CCCCC2
[2]
  Potency: active: 25.1 µM
[3]
  Potency: inconclusive: 11.2 µM [inhibitor, partial curve, poor fit]

## Cc1ccc(-c2nn(-c3ccccc3)cc2C=C2C(=O)CC(C)(C)CC2=O)cc1
[1]
  Potency: inconclusive: 6.7 µM [inhibitor, full curve]
[3]
  Potency: inconclusive: 2.51 µM [inhibitor, full curve]
[4]
  Potency: inactive

## Cc1nc(NC(=O)c2ccc(Cl)cc2)sc1Cc1ccc2c(c1)OCO2
[1]
  Potency: inconclusive: 33.6 µM [inhibitor, single point]
[2]
  Potency: inconclusive: 4.47 µM [inhibitor, full curve, poor fit]
[3]
  Potency: inactive
[5]
  Potency: inconclusive: 18.4 µM [cytotoxic, single point]

## N#CC1=C(N)C(C#N)(C#N)C(c2cccnc2)C2CN(C(=O)OCc3ccccc3)CC=C12 (centres undefined)
[2]
  Potency: inconclusive: 3.98 µM [inhibitor, partial curve, poor fit]

## COc1ccc(C(Nc2cc(C)ccn2)c2ccc3ccc(C)nc3c2O)cc1 (centres undefined)
[2]
  Potency: active: 3.55 µM

## COc1ccccc1C1=NNC(=Nc2cccc(S(=O)(=O)N(C)C)c2)SC1
[1]
  Potency: inconclusive: 15.8 µM [inhibitor, partial curve]
[2]
  Potency: inconclusive: 7.94 µM [inhibitor, full curve, poor fit]
[3]
  Potency: inconclusive: 20 µM [inhibitor, partial curve, poor fit]
[5]
  Potency: inconclusive: 0.0267 µM [rising, full curve]

## O=C(NCc1cccnc1)/C(=C\c1ccc(-c2ccc(Br)cc2)o1)S(=O)(=O)c1ccccc1
[2]
  Potency: inconclusive: 11.2 µM [inhibitor, partial curve]

## CCOc1ccc(/C=C/C(=O)Nc2sc3c(c2C(=O)OC)C(C(=O)OC)CC3)cc1 (centres undefined)
[1]
  Potency: inconclusive: 3.55 µM [inhibitor, full curve]
[3]
  Potency: inconclusive: 39.8 µM [inhibitor, single point]
[4]
  Potency: active: 13 µM
[5]
  Potency: inconclusive: 21.2 µM [cytotoxic, single point]
[6]
  Potency: inactive
[7]
  Potency: inconclusive: 24.1 µM [inhibitor, partial curve]

## Cc1ccc(NN2C(=O)C=C(c3ccc(Cl)cc3)C2=O)cc1
[1]
  Potency: inconclusive: 4.74 µM [inhibitor, full curve]
[2]
  Potency: inconclusive: 3.16 µM [inhibitor, partial curve, poor fit]
[3]
  Potency: inconclusive: 3.55 µM [inhibitor, partial curve]
[4]
  Potency: inconclusive: 18.4 µM [inhibitor, single point]
[5]
  Potency: inconclusive: 14.1 µM [cytotoxic, single point]

## O=c1[nH]c(/C=C/c2ccccc2)c([N+](=O)[O-])c(=O)[nH]1
[2]
  Potency: inconclusive: 7.94 µM [inhibitor, full curve]
[3]
  Potency: inactive

## COc1ccc(OC)c(/C=C/C(=O)c2ccc(Cl)cc2)c1
[1]
  Potency: active: 17.8 µM
[3]
  Potency: active: 28.2 µM
[4]
  Potency: inconclusive: 29.1 µM [inhibitor, single point]
